Measured values from publication PMC6997366.
Results are given in words; binding and its absence hold for the method and conditions named. In cells and extracts the contact can be indirect. Some entries that bind do so weakly or less than the wild type.

T1: VC155-A20 (UniProt P21580)
T1 sequence: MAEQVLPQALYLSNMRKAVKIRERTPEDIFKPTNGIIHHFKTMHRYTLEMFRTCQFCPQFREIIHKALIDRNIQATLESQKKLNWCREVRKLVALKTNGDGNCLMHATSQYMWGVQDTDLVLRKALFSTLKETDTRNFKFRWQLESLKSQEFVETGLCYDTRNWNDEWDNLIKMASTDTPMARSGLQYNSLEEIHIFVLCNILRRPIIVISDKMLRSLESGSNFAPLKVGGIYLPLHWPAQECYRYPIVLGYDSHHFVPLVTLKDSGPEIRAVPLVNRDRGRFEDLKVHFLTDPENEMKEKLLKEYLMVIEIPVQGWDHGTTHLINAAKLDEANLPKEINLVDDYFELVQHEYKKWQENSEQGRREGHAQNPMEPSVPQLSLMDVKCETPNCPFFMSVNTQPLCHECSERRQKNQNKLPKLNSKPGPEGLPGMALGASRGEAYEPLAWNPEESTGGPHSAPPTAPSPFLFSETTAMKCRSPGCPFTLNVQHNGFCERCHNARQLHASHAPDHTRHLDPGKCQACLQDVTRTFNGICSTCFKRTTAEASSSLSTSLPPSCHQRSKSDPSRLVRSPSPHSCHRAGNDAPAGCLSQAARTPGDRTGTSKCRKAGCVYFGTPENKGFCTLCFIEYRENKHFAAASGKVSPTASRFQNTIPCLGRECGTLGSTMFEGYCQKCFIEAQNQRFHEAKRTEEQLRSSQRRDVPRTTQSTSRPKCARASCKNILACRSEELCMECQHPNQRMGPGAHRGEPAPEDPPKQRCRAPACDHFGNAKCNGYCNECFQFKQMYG

T2: A20 (Tumor necrosis factor alpha-induced protein 3), endogenous (human (endogenous in Huh7)) (UniProt P21580)
T2 sequence: T1 sequence

B1: VN173-PFKL (enzyme, UniProt P17858 1-780)
chain: MAAVDLEKLRASGAGKAIGVLTSGGDAQGMNAAVRAVTRMGIYVGAKVFLIYEGYEGLVEGGENIKQANWLSVSNIIQLGGTIIGSARCKAFTTREGRRAAAYNLVQHGITNLCVIGGDGSLTGANIFRSEWGSLLEELVAEGKISETTARTYSHLNIAGLVGSIDNDFCGTDMTIGTDSALHRIMEVIDAITTTAQSHQRTFVLEVMGRHCGYLALVSALASGADWLFIPEAPPEDGWENFMCERLGETRSRGSRLNIIIIAEGAIDRNGKPISSSYVKDLVVQRLGFDTRVTVLGHVQRGGTPSAFDRILSSKMGMEAVMALLEATPDTPACVVTLSGNQSVRLPLMECVQMTKEVQKAMDDKRFDEATQLRGGSFENNWNIYKLLAHQKPPKEKSNFSLAILNVGAPAAGMNAAVRSAVRTGISHGHTVYVVHDGFEGLAKGQVQEVGWHDVAGWLGRGGSMLGTKRTLPKGQLESIVENIRIYGIHALLVVGGFEAYEGVLQLVEARGRYEELCIVMCVIPATISNNVPGTDFSLGSDTAVNAAMESCDRIKQSASGTKRRVFIVETMGGYCGYLATVTGIAVGADAAYVFEDPFNIHDLKVNVEHMTEKMKTDIQRGLVLRNEKCHDYYTTEFLYNLYSSEGKGVFDCRTNVLGHLQQGGAPTPFDRNYGTKLGVKAMLWLSEKLREVYRKGRVFANAPDSACVIGLKKKAVAFSPVTELKKDTDFEHRMPREQWWLSLRLMLKMLAQYRISMAAYVSGELEHVTRRTLSMDKGF
B2: phosphofructokinase, liver type (PFKL), endogenous (enzyme, UniProt P17858 1-780)
chain: B1 chain

Key:
VC155-A20 = target: T1, VC155-A20; assay: split reporter; BiFC in Huh7 cells transfected with VC155-A20 and VN173-PFKL plasmids (1 ug each), fixed 24 h after transfection, confocal microscopy
[1] = target: T2, A20 (Tumor necrosis factor alpha-induced protein 3), endogenous (human (endogenous in Huh7)); assay: co-IP; endogenous proteins, Huh7 lysate in 0.1-0.5% Nonidet P40 buffer (150 mM NaCl, 50 mM Tris-HCl, pH 7.5); anti-A20 antibody and protein G agarose at 4 °C; western blotting
[2] = target: T2, A20 (Tumor necrosis factor alpha-induced protein 3), endogenous (human (endogenous in Huh7)); assay: proximity ligation; Duolink in situ assay in Huh7 cells with anti-A20 (mouse) and anti-PFKL (rabbit) antibodies; cells pretreated with MG132 for 6 h, then with or without LPS for 4 h

Row | Binder | binding (VC155-A20) | binding [1] | binding [2]
1 | B1 | binds | – | –
2 | B2 | – | binds | binds
